Laboratory results: PubChem BioAssay AID624297 (National Center for Advancing Translational Sciences (NCATS), 2012)
The whole screen tested about 340,000 compounds, of which about 6,200 (1.8%) were called active. Inconclusive results, whose numbers are uncertain, are shown with a selection of clear calls. Calls come from the whole dose curve; as a rule, active = well fitted activation curve with a large enough effect; inconclusive = small, poorly fitted or top-dose-only effect; inactive = no such curve, though single readings can be large or run the other way. A potency beside an inconclusive call is a rough fit, not a confirmed value.

assay: A quantitative high throughput screen for small molecules that induce DNA re-replication in SW480 colon adenocarcinoma cells.; note: nearly all actives have a fitted effect of over 55% in size; for re-replication activation: % of control where 0% means no effect; conditions: Hoechst DNA content imaging, 48 h; re-replication activation: at 46.1 µM (top of the series) unless noted
Outline: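 250 cells/well; 23 nL cpd via pin tool; 48 hr, 37 C, 5% CO2; Hoechst 40 min; imager read of total nuclear intensity, ex 405/em 500-530 nm.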
Potency is the fitted concentration of half-maximal effect.

SMILES | Potency | re-replication activation
Cc1ccc(Cl)cc1N1C(=O)CC(Sc2ncccn2)C1=O (configuration not stated) | inconclusive: 29.1 µM [activator, partial curve, poor fit] | –
COc1ccc([C@H]2CC(=O)C=C(c3cc(C)ccc3OC)C2)cc1 | active: 16.4 µM | –
CCOc1cc(/C=C2\C(=O)ON=C2c2ccccc2)cc(Br)c1O | inconclusive: 29.1 µM [activator, partial curve, poor fit] | –
Cc1cccc(Nc2nc(N3CCOCC3)nc(N3CCOCC3)n2)c1 | – | inactive: 27.5%
O=c1c2ccccc2nc(SCc2cccc(F)c2)n1C1CCCC1 | – | inactive: 10.6%
COc1ccc(-c2nn3c(-c4cccc(C)c4)nnc3s2)cc1OC | inconclusive: 29.1 µM [activator, single point] | –
Cc1ccc2c(c1)C1CN(C)CCC1N2S(=O)(=O)c1ccc(C(C)C)cc1 (configuration not stated) | – | inactive: 15.5%
Cc1ccc(N(C(C)C(=O)N2CCC(C)CC2)S(C)(=O)=O)cc1C (configuration not stated) | inconclusive: 0.206 µM [activator, full curve, poor fit] | –
Cc1sc2ncn(CC(=O)NCCCC(=O)N3CCC(C)CC3)c(=O)c2c1C | – | inactive: 0.219%
O=C(CCCCn1c(=O)c2ccccc2n(Cc2ccc(F)cc2Cl)c1=O)NCc1ccco1 | inconclusive: 23.1 µM [activator, single point] | –
Cc1sc(N)c(C(=O)c2ccccc2Cl)c1C | – | inactive: 0.0895%
C/C(=N\Nc1nc2c(s1)CCCC2)c1ccccc1 | inconclusive: 16.4 µM [activator, single point] | –
CCSc1nc2ccccc2n1CC(N)=O | – | inactive: -5.94%
Cc1cc(-n2c(=O)c(C#N)cc3c(=O)n4ccccc4nc32)no1 | inconclusive: 4.11 µM [activator, partial curve, poor fit] | –
COc1ccc(C(=O)Nc2nc3ccc(OC)cc3s2)cc1 | inconclusive: 14.6 µM [activator, single point] | –
CCCCN1CCCC1C(=O)Nc1c(C)cc(C)cc1C (configuration not stated) | – | inactive: 6.98%
COc1cccc(C(=O)Nc2sc3c(c2C#N)CCN(C(C)=O)C3)c1 | active: 4.61 µM | –
CCCn1c(N2CCN(CC(=O)c3c(C)n(C)c4ccc(OC)cc34)CC2)nc2c1c(=O)[nH]c(=O)n2C | – | inactive: 2.16%
CCOc1ccc2nc(NS(=O)(=O)Cc3ccccc3)sc2c1 | inconclusive: 25.9 µM [activator, single point] | –
CN(CC(=O)Nc1cccc(F)c1)C(=O)CC1CC2CCC1C2 (configuration not stated) | inconclusive: 29.1 µM [activator, single point] | –
CC(C)OCCCNC(=O)Cn1ccc2cc(S(=O)(=O)N3CCCCC3)ccc21 | inconclusive: 6.31 µM [activator, partial curve] | –
CCOC(=O)c1cnn(-c2ccccc2)c1-c1ccncc1 | inconclusive: 2.91 µM [activator, single point] | –
O=[N+]([O-])c1nn(-c2ccc3c(c2)OCCO3)n(O)c1=NC1CCCCC1 | inconclusive: 29.1 µM [activator, single point] | –
CNc1nc(-c2ccccc2)cc(C)c1S(C)(=O)=O | inconclusive: 0.517 µM [activator, full curve, poor fit] | –

SMILES | Potency | re-replication activation
Cc1ccc(N2CC(C(=O)OCC(=O)Nc3ccccc3F)CC2=O)cc1 (configuration not stated) | inconclusive: 0.0065 µM [activator, full curve, poor fit] | –
O=C(Cn1c(NCCCO)nc2ccccc21)c1ccco1 | inconclusive: 18.4 µM [activator, single point] | –
CC12CCC(C(=NO)C1=O)C2(C)C (configuration not stated) | – | inactive: -2.98%
COc1ccc(Oc2cnn(-c3ccccc3)c(=O)c2Br)cc1 | inconclusive: 29.1 µM [activator, single point] | –
O=C(O)C1CCCCC1C(=O)Nc1cccc(C(=O)N2CCCCC2)c1 (configuration not stated) | inconclusive: 29.1 µM [activator, single point] | –
CCOC(=O)C1=C(c2ccccc2)NC(SCC(=O)Nc2cccc(C)c2)=C(C#N)C1c1ccco1 (configuration not stated) | active: 18.4 µM | –
Cc1ccc(/C=N/Nc2cc(C)nc(NCc3ccccc3)n2)cc1 | inconclusive: 23.1 µM [activator, single point] | –
CC(C)(C)NC(=O)C(c1ccccc1)N(Cc1ccco1)C(=O)c1csnn1 (configuration not stated) | – | inactive: -0.383%
O=C(Nc1ccc2c(c1)CCC2)c1cccc(OC(F)F)c1 | – | inactive: 4.31%
Oc1ccc(N=Nc2ccccc2)o1 | inconclusive: 18.4 µM [activator, single point] | –
CCOc1ccc(N(CC(=O)NC2CC3CCC2C3)S(=O)(=O)c2ccc(C)cc2)cc1 (configuration not stated) | inconclusive: 1.3 µM [activator, full curve, poor fit] | –
O=c1c2ccccc2nc(/C=C/c2cc(Br)ccc2O)n1CCCO | inconclusive: 29.1 µM [activator, single point] | –
Cc1cc(Br)c(Cl)cc1NC(=O)CN1C(=O)C2C3CC(c4ccccc4)C(C3)C2C1=O (configuration not stated) | inconclusive: 29.1 µM [activator, single point] | –
COc1cc(C(=O)ON=C2C3CC4CC(C3)CC2C4)cc(OC)c1OC | inconclusive: 29.1 µM [activator, single point] | –
O=C1NC(=O)C2(CCCCC2C2CCCCC2)N1 (configuration not stated) | – | inactive: 0.79%
O=C(Nc1ccccc1)c1cccc(N2C(=O)C3C4C=CC(C5CC45)C3C2=O)c1 (configuration not stated) | – | inactive: -1.06%
COc1ccc(/C=C(\NC(=O)c2ccc(C)cc2)C(=O)NCCCn2ccnc2)cc1OC | – | inactive: -5.31%
COc1ccc(NS(=O)(=O)c2cc(NC(=O)CCc3ccc(OC)c(OC)c3)ccc2N2CCOCC2)cc1 | – | inactive: -1.8%
N#Cc1cccc(NC(=O)CCc2ccc(S(=O)(=O)N3CCOCC3)cc2)c1 | – | inactive: -32.9%
C=CC(C)(C)c1c(O)c(CC=C(C)C)c(O)c2c(=O)c3ccc(O)c(O)c3oc12 | inconclusive: 0.58 µM [activator, full curve, poor fit] | –
O=C(Nc1ccc(Br)cc1)c1cccc(S(=O)(=O)Nc2ccccn2)c1 | – | inactive: -1.53%
CC(C)OCCCNC(=O)NC(=O)c1ccc(Cl)cc1 | – | inactive: 0.911%
CCCc1sc(N/N=C/c2ccccn2)nc1-c1ccc(Br)cc1 | inconclusive: 6.51 µM [activator, partial curve] | –

3 compounds out of the list, arranged by heavy-atom count, descending.
SMILES | Potency | re-replication activation
CC(C)(C)NC(=O)C(c1ccccc1)N(Cc1ccco1)C(=O)c1csnn1 (configuration not stated) | – | inactive: -0.383%
O=C(Nc1ccc(Br)cc1)c1cccc(S(=O)(=O)Nc2ccccn2)c1 | – | inactive: -1.53%
CCCc1sc(N/N=C/c2ccccn2)nc1-c1ccc(Br)cc1 | inconclusive: 6.51 µM [activator, partial curve] | –
